Results: patent US20240150473A1, “MODULATION OF WNT SIGNALING IN GASTROINTESTINAL DISORDERS” (Surrozen Operating, Inc., priority 2021, published 2024)
These are yes or no findings as the source states them, for the method shown. Some binding calls cover weakened binding; strength is not graded here.

Biological target: T1, biotinylated LRP6E3E4 (UniProt O75581)
T1 sequence (biotinylated (site not stated), looked up): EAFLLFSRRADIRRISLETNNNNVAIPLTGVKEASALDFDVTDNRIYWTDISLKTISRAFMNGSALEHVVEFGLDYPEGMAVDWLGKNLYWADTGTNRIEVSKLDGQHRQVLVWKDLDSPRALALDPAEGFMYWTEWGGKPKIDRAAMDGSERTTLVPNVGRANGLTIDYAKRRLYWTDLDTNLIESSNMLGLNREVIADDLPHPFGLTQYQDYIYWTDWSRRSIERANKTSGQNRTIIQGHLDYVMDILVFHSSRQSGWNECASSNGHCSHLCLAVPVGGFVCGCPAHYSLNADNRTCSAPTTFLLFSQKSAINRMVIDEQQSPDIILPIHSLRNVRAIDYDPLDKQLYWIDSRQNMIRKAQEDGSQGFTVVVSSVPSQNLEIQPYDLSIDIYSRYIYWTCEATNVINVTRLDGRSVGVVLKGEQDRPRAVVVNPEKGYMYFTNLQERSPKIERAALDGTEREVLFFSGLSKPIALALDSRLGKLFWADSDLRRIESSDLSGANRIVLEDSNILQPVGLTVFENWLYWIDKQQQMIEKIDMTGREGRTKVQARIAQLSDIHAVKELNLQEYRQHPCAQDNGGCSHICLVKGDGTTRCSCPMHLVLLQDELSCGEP
Test: BLI (Octet), Lrp6E3E4 domain

binding: binds
B1: VHH26-H5 (VHH)
VHH: EVQLVESGGGLVQPGGSLRLSCAGSGRIFAIYDIAWYRQAPGKGREWVAMIRPVVTEIDYADSVKGRFTISRDNSKKTVYLQMNSLRAEDTAVYYCNAKRPWGSRDEYWGQGTTVTVSS
